Experimental data reported in PMC5094957.
Where a chain is given by its changes, count along the chain named. These are yes or no findings as the source states them, for the method shown. In cells and extracts the contact can be indirect. Some entries that bind do so weakly or less than the wild type. Tags and fused reporters may be left off the sequences shown.

By UniProt entry, the sequences of proteins in these tests, tags left out.
UniProt Q969H0: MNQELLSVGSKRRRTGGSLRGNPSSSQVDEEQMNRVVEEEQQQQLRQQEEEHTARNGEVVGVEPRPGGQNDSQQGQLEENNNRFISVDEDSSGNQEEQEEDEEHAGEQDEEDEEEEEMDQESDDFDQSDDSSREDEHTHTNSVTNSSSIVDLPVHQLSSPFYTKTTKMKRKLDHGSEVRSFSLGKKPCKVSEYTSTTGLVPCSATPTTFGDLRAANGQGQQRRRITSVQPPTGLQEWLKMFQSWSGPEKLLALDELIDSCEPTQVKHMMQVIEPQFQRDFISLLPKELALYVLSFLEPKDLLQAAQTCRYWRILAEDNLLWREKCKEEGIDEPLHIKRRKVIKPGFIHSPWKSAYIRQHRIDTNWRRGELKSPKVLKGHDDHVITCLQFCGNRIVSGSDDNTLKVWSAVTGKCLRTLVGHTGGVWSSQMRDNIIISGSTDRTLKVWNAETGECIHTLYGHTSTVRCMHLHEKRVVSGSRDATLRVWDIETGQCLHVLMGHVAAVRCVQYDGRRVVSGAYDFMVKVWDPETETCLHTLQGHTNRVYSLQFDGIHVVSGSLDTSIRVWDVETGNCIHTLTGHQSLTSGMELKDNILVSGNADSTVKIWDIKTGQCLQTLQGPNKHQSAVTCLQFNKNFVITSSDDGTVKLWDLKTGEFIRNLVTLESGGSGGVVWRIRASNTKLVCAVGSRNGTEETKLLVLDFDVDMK

Tests used:
[1] = biological target: T1, FAAP20, Flag-tagged, in vitro transcribed and translated (UniProt Q6NZ36); assay: co-IP; Flag-FAAP20 and HA-FBW7 in vitro transcribed and translated (250 ng plasmids, TnT T7 Quick Coupled Master Mix, 30 C, 70 min), then co-immunoprecipitation
T1 sequence: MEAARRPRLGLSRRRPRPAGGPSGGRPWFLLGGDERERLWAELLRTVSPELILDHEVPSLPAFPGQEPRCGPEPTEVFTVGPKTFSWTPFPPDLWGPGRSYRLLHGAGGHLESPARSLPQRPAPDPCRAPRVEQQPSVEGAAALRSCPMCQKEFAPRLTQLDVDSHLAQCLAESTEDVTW

[2] = biological target: T2, FAAP20 (Fanconi Anemia-Associated Protein, 20 kDa), wild-type, tagged, expressed in 293T cells (UniProt Q6NZ36); assay: co-IP; 293T cells co-expressing HA-FBW7 and tagged FAAP20 (WT or SA), 10 uM MG132 for 6 h, lysed in NETN150 (1 % NP40, 150 mM NaCl, 0.1 mM EDTA, 50 mM Tris pH 7.5) with phosphatase and protease inhibitors; anti-Flag M2 affinity gel 4 h, five washes; Western blot
T2 sequence: T1 sequence

[3] = biological target: T3, FAAP20 S113A/S117A (SA) mutant, tagged, expressed in 293T cells (UniProt Q6NZ36); assay: as above
T3 sequence: T1 sequence with S113A, S117A

| Substance | binding [1] | binding [2] | binding [3] |
| --- | --- | --- | --- |
| FBW7, HA-tagged, in vitro transcribed and translated (from UniProt Q969H0 1-707) | binds |  |  |
| FBW7 (F-box and WD repeat domain-containing 7), HA-tagged, expressed in 293T cells (from UniProt Q969H0 1-707) |  | binds | no binding |
